According to the M2OR odorant receptor database:
The entries are a selection whose mix differs from that of the whole data set. The calls were merged from several studies; some rest on single wells. Some of the results follow.

Chains of the proteins cited; added tags and fusions are not shown. Lines headed by an entry give the natural chain unless they say otherwise; changes in a name come on top. A line that says so, or that is headed by a name, gives the form on record, which may keep a tag or linker.
UniProt Q8NH37: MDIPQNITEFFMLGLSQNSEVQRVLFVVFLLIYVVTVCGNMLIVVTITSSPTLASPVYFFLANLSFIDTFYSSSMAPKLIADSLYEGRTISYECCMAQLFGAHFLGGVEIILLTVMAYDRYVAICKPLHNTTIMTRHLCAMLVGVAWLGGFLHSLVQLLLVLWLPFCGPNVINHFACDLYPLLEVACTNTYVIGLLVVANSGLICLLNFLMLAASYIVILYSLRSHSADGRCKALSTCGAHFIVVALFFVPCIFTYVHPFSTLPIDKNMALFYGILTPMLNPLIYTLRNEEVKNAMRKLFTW
UniProt Q8NH72: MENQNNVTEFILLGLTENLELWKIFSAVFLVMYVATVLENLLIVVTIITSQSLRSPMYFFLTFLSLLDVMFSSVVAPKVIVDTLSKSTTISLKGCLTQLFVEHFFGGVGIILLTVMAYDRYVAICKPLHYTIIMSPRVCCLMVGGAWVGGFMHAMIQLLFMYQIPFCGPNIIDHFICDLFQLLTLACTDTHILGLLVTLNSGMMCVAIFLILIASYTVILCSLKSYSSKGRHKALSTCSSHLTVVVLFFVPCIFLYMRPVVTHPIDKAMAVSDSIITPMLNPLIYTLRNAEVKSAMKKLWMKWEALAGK
OR4C3, as listed by the source: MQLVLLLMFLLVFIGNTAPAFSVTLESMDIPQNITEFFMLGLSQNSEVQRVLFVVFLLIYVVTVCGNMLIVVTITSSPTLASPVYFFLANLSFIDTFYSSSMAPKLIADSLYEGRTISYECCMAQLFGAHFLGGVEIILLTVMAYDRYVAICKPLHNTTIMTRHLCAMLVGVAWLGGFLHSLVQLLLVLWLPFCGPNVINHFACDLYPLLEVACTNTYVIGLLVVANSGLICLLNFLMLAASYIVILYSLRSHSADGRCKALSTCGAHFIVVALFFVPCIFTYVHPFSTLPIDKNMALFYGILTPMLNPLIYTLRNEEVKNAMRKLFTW
OR4CC, as listed by the source: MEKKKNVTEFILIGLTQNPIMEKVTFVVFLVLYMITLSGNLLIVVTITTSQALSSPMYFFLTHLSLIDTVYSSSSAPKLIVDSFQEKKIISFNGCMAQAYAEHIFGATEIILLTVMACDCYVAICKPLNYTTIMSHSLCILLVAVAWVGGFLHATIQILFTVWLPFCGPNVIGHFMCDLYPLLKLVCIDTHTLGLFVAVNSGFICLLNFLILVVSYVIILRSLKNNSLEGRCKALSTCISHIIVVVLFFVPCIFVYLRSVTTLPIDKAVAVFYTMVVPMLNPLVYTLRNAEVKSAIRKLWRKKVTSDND
OR4C5, as listed by the source: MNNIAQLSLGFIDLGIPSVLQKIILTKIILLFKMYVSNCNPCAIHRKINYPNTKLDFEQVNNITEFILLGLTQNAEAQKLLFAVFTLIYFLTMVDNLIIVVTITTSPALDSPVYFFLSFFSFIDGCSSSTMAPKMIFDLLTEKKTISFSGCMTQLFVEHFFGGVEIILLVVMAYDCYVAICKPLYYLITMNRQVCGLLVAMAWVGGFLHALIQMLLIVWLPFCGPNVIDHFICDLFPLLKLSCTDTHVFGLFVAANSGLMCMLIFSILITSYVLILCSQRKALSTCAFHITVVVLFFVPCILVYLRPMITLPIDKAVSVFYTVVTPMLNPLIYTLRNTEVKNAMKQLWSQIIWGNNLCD

Key:
Conditions in all cases: stereoisomer not certain
OR3A3 = test system: T1, OR3A3
T1 sequence (whole entry): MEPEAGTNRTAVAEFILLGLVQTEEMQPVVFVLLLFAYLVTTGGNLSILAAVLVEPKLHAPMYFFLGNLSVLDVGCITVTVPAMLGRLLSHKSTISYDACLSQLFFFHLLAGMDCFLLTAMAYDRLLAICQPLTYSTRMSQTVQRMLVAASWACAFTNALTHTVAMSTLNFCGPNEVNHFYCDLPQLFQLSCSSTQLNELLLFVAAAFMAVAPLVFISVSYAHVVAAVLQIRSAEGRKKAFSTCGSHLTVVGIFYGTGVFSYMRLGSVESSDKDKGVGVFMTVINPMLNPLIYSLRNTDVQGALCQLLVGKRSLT
How it was run: (§1)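 Values were gathered from published papers (main text and supplementary material), with extra details requested from the original authors when needed, and checked for typos and inconsistencies. Each receptor–molecule pair is called responsive (active) if the original authors judged the measured signal statistically different from baseline, and non-responsive (inactive) otherwise. Assay methods varied by source, often transient mammalian cell-line luciferase assays. Recorded details include cell line, G-protein, co-transfected protein and tags.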

OR3A4 = test system: T2, OR3A4
T2 sequence (whole entry): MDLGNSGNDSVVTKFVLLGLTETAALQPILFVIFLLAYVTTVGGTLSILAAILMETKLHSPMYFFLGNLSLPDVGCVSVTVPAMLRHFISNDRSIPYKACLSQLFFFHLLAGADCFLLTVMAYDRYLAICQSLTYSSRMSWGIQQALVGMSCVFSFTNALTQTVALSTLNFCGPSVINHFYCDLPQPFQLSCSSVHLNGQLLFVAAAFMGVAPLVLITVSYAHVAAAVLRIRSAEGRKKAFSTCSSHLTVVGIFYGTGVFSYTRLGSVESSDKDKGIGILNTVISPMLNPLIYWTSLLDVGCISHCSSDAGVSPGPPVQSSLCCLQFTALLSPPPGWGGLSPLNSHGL
How it was run: as §1

OR4A16 (Homo sapiens) = target: T3, OR4A16 (Homo sapiens) (UniProt Q8NH70)
T3 sequence (whole entry): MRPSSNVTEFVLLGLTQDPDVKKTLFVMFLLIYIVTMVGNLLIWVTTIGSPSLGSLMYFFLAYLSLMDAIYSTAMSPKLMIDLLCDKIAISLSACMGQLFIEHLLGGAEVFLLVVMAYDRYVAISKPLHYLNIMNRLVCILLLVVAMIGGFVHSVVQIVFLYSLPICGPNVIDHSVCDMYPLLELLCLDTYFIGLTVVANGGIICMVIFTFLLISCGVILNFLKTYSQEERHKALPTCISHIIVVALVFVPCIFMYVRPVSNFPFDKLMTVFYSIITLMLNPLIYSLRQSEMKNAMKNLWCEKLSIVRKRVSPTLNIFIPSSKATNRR
How it was run: as §1

OR4A4P (Homo sapiens) = target: T4, OR4A4P (Homo sapiens) (UniProt Q8NGN8)
T4 sequence (whole entry): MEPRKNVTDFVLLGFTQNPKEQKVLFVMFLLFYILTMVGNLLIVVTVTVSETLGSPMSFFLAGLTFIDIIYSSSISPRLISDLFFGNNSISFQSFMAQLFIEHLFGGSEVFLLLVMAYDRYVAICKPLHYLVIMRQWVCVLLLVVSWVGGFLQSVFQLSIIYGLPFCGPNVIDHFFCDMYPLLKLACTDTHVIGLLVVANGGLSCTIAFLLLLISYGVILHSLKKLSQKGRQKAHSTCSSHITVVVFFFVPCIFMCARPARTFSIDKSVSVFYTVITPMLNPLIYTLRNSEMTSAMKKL
How it was run: as §1

OR4A5 (Homo sapiens) = target: T5, OR4A5 (Homo sapiens) (UniProt Q8NH83)
T5 sequence (whole entry): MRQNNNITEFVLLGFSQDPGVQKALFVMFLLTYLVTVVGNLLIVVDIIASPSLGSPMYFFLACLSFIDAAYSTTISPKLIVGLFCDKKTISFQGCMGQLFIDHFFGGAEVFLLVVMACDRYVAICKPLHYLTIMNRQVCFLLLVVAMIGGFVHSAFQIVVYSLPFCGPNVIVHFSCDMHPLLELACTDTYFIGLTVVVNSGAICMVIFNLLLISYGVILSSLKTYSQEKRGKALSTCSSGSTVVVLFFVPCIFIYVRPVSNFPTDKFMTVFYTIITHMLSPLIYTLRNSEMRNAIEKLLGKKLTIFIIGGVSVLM
How it was run: as §1

OR4A5 = test system: T6, OR4A5
T6 sequence (whole entry): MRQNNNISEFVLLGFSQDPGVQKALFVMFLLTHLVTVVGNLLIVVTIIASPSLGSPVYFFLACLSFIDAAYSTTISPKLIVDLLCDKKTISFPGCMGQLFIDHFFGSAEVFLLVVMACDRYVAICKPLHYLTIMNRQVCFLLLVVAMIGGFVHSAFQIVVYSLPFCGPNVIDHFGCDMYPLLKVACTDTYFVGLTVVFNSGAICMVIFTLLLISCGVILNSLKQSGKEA
How it was run: as §1

OR4B1 (Homo sapiens) = target: T7, OR4B1 (Homo sapiens) (UniProt Q8NGF8)
T7 sequence (whole entry): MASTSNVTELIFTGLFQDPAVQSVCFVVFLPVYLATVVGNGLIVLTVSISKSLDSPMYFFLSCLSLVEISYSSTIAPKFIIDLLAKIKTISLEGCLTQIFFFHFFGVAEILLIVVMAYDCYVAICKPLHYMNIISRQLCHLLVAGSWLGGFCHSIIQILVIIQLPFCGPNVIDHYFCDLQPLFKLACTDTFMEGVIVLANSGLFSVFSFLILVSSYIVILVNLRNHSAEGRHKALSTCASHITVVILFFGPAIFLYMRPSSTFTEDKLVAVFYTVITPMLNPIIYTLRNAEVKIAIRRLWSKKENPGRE
How it was run: as §1

OR4C11 (Homo sapiens) = target: T8, OR4C11 (Homo sapiens) (UniProt Q6IEV9)
T8 sequence (whole entry): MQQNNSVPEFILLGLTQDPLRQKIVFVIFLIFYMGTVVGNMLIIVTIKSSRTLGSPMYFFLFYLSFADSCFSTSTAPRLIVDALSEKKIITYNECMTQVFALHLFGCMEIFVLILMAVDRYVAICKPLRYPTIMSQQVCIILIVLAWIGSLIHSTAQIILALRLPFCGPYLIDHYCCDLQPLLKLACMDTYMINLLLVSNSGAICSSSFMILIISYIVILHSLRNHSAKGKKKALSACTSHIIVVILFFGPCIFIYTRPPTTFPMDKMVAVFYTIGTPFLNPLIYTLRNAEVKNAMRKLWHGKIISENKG
How it was run: as §1

OR4C3 (Homo sapiens) = OR4C3 (Homo sapiens) (UniProt Q8NH37)
How it was run: as §1

OR4C3 = test system: OR4C3
How it was run: as §1

OR4C5 = test system: OR4C5
How it was run: as §1

OR4C6 (Homo sapiens) = OR4C6 (Homo sapiens) (UniProt Q8NH72)
How it was run: as §1

OR4CC = test system: OR4CC
How it was run: as §1

SMILES	odorant receptor agonist call (OR3A3)	odorant receptor agonist call (OR3A4)	odorant receptor agonist call (OR4A16 (Homo sapiens))	odorant receptor agonist call (OR4A4P (Homo sapiens))	odorant receptor agonist call (OR4A5 (Homo sapiens))	odorant receptor agonist call (OR4A5)	odorant receptor agonist call (OR4B1 (Homo sapiens))	odorant receptor agonist call (OR4C11 (Homo sapiens))	odorant receptor agonist call (OR4C3 (Homo sapiens))	odorant receptor agonist call (OR4C3)	odorant receptor agonist call (OR4C5)	odorant receptor agonist call (OR4C6 (Homo sapiens))	odorant receptor agonist call (OR4CC)
CCCCCCCC=O	inactive	inactive	inactive	inactive	inactive	inactive	inactive	inactive	inactive	inactive	inactive	inactive	inactive
C=CC(C)(O)CCC=C(C)C (stereo unspecified)	inactive	inactive	inactive	inactive	inactive	inactive	inactive	inactive	inactive	inactive	inactive	inactive	inactive
COc1ccccc1O	inactive	inactive	inactive	inactive	inactive	inactive	inactive	inactive	inactive	inactive	inactive	inactive	inactive
CC12CCC(C1)C(C)(C)C2=O (stereo unspecified)	inactive	inactive	inactive	inactive	inactive	inactive	inactive	inactive	inactive	inactive	inactive	inactive	inactive
COc1cc(C=O)ccc1O	inactive	active	inactive	inactive	inactive	inactive	inactive	inactive	inactive	inactive	inactive	inactive	inactive
CC(C)=CCCC(C)=CC=O	inactive	inactive	inactive	inactive	active	inactive	inactive	inactive	inactive	inactive	inactive	inactive	inactive
CC12C=CCC1C1CCC3=CC(=O)CCC3(C)C1CC2 (stereo unspecified)	inactive	inactive	inactive	inactive	inactive	inactive	inactive	inactive	inactive	inactive	inactive	inactive	inactive
CC(C)(C)c1ccc(CCC=O)cc1	inactive	inactive	inactive	inactive	inactive	inactive	inactive	inactive	inactive	inactive	inactive	inactive	inactive
CC(=O)C(C)=O	inactive	inactive	inactive	inactive	inactive	inactive	inactive	inactive	inactive	inactive	inactive	inactive	inactive
CCCCCCCC=CC=O	inactive	inactive	inactive	inactive	inactive	inactive	inactive	inactive	inactive	inactive	inactive	inactive	inactive
CC(=O)OC(C)(C)C1CC=C(C)CC1 (stereo unspecified)	inactive	inactive	inactive	inactive	inactive	inactive	inactive	inactive	inactive	inactive	inactive	inactive	inactive
COC(=O)c1ccccc1O	inactive	inactive	inactive	inactive	inactive	inactive	inactive	inactive	inactive	inactive	inactive	inactive	inactive

Look-ups from the results shown.
Entry for `COC(=O)c1ccccc1O` under odorant receptor agonist call (OR4A4P (Homo sapiens)): inactive
Entry for `COc1ccccc1O` under odorant receptor agonist call (OR4C5): inactive
